{"source": "PubChem BioAssay AID588497", "about": "(NMMLSC, 2011)", "note": "The whole screen tested about 360,000 compounds, of which about 780 (0.22%) were called active. The shares of active, inactive and inconclusive entries below differ from those in the screen. Cut-off read from the data, not from the text of the source: active = inhibition above about 35% (passing the limit was not always enough); inconclusive = no clear call, values can overlap the other calls.", "data": [{"test_system": "Botulinum neurotoxin type F light chain protease (Clostridium botulinum)", "test": "BoNT/F light chain protease inhibitors, primary screen, biochemical, flow cytometry, MLPCN library (AID 588497); note: plate controls were buffer without enzyme for full effect and enzyme alone for no effect", "conditions": "Multiplex microsphere protease cleavage assay, at 10 µM, hits give high values", "values": [{"smiles": "CC(C)(C)c1ccc(C(=O)c2c[nH]c(C(=O)NCCCn3ccnc3)c2)cc1", "inhibition": "inactive: -12.2%"}, {"smiles": "CCc1nc(NCCC(C)C)c2nnn(Cc3ccccc3)c2n1", "inhibition": "inconclusive: -16.3%"}, {"smiles": "CC(=O)c1cccc(NC(=O)NCc2cccnc2)c1", "inhibition": "inactive: -0.4%"}, {"smiles": "CCOc1cc(C(=S)N2CCOCC2)ccc1OC(=O)c1ccccc1", "inhibition": "inconclusive: -3.5%"}, {"smiles": "C=CCc1c(C)nc2c(C)cccc2c1SC(=N)N", "inhibition": "inconclusive: 41.6%"}, {"smiles": "O=C1NC(=O)C(Cc2ccccc2)(c2cccnc2)N1", "note": "(stereo not drawn)", "inhibition": "inconclusive: -26%"}, {"smiles": "CCc1cc2c(=O)oc(-c3ccc(F)cc3)nc2s1", "inhibition": "inconclusive: -6.2%"}, {"smiles": "CC(=O)N1N=C(c2ccc(Cl)cc2)OC12CCCC2", "inhibition": "inconclusive: -2.8%"}, {"smiles": "OCCCNc1ncnc2sc3c(c12)CCN(Cc1ccccc1)C3", "inhibition": "inconclusive: -105%"}, {"smiles": "O=C(NC(Cc1ccccc1)C(=O)N1CCCC(C(F)(F)F)C1)c1ccccc1", "note": "(stereo not drawn)", "inhibition": "inconclusive: -3.6%"}, {"smiles": "COc1ccc(S(=O)(=O)N2CCN(C(=O)CC(C)C)CC2)cc1", "inhibition": "active: 39.8%"}, {"smiles": "CCN=C1S/C(=C/c2ccc(-c3ccc(Cl)cc3C(=O)O)o2)C(=O)N1CC", "inhibition": "inconclusive: 13.7%"}, {"smiles": "CCOC(=O)C1CCCN(C(=S)Nc2ccc(C)cc2C)C1", "note": "(stereo not drawn)", "inhibition": "inactive: -1.5%"}, {"smiles": "CN=C(C)/C(C(=O)OC)=C(/O)c1ccc(Cl)cc1Cl", "inhibition": "inconclusive: 13.6%"}, {"smiles": "Cc1ccc2c(=O)cc(C(=O)NCCc3ccc(S(N)(=O)=O)cc3)oc2c1", "inhibition": "inconclusive: 8.8%"}, {"smiles": "O=C(CSc1nc2ccccc2[nH]1)c1ccco1", "inhibition": "inconclusive: -14.4%"}, {"smiles": "CCOc1ccccc1NC(=O)C1CCCN(S(=O)(=O)c2ccc3c(c2)C(C)(C)C(=O)N3C)C1", "note": "(stereo not drawn)", "inhibition": "inactive: -8.3%"}, {"smiles": "Cc1ccc(C(=O)CNc2ccccc2)cc1", "inhibition": "inconclusive: -5.2%"}, {"smiles": "CCCN1C(=O)/C(=C/c2ccc(N3CCCC3)c(C)c2)NC1=S", "inhibition": "inactive: 14%"}, {"smiles": "CCCNC(=O)NC(=O)CSc1nnc(-c2c[nH]c3ccccc23)o1", "inhibition": "inconclusive: -19%"}, {"smiles": "Cc1ccc2nc(CCc3nc4ccc(C)cc4[nH]3)[nH]c2c1", "inhibition": "inconclusive: 18.7%"}, {"smiles": "Cc1ccc(N=Nc2c(O)[nH]c(=O)[nH]c2=O)c([N+](=O)[O-])c1", "inhibition": "inactive: 24%"}, {"smiles": "CC(C)(C)c1cc(-c2n[nH]c(=S)n2-c2ccccc2F)n[nH]1", "inhibition": "inconclusive: 8.5%"}, {"smiles": "CC(C)(CO)NC(=O)c1ccc2nc(Cc3cccc(Cl)c3)oc2c1", "inhibition": "inconclusive: 3%"}, {"smiles": "CC1(C(=O)Nc2cccc3c2CCCC3)CCN1C(=O)CCC1CCCC1", "note": "(stereo not drawn)", "inhibition": "inactive: -1.6%"}, {"smiles": "CC(=O)Oc1ccc(C2=NN(c3ccccc3)C(c3ccccc3)C2)cc1", "note": "(stereo not drawn)", "inhibition": "inconclusive: 7.6%"}, {"smiles": "COc1cccc(CN2CC(C(=O)NCc3ccc(C)o3)CCC2=O)c1", "note": "(stereo not drawn)", "inhibition": "inactive: 10.6%"}, {"smiles": "NC(=O)c1ccc(OCC(F)(F)F)nc1", "inhibition": "inconclusive: -30.3%"}, {"smiles": "O=C(O)CCN1C(=O)CC2(CCCCC2)C1=O", "inhibition": "inconclusive: 28.5%"}, {"smiles": "CCC(C)[C@H](NC(=O)NCc1ccccn1)C(=O)OC", "note": "(stereo partly drawn)", "inhibition": "inactive: 0%"}, {"smiles": "Cc1noc(C)c1C(=O)N1CCC1(C)C(=O)NS(=O)(=O)c1cccc(OC(F)F)c1", "note": "(stereo not drawn)", "inhibition": "inactive: -3.9%"}, {"smiles": "O=C(NCc1ccc(F)cc1)c1cc2c(s1)CCCC2", "inhibition": "inactive: -13.5%"}, {"smiles": "Cc1cccc(/C=N/n2c(-c3ccccc3)n[nH]c2=S)c1O", "inhibition": "inconclusive: -25.2%"}, {"smiles": "COc1ccccc1C1C(C(C)=O)=C(O)C(=O)N1c1ccc(O)cc1", "note": "(stereo not drawn)", "inhibition": "inconclusive: -10.5%"}, {"smiles": "O=C(NCCS(=O)(=O)NCc1cccs1)c1ccccc1", "inhibition": "inactive: -2.2%"}, {"smiles": "CCCCn1c(-c2cccs2)nc2oc3ccccc3c(=O)c2c1=O", "inhibition": "inconclusive: -81.4%"}, {"smiles": "COc1ccccc1CN1CCN(Cc2cc(OC)c(OC)cc2OC)CC1", "inhibition": "inconclusive: -5.2%"}, {"smiles": "COCCCNc1c2c(nc3ccccc13)CCC2", "inhibition": "inactive: -0.7%"}, {"smiles": "NC1=NC(=O)/C(=C\\c2cccs2)S1", "inhibition": "inactive: 8.4%"}, {"smiles": "O=C(Nc1ccon1)c1cccc(S(=O)(=O)N2CCCC2)c1", "inhibition": "inactive: -1.5%"}, {"smiles": "CCCCCSc1nnc(N)s1", "inhibition": "inconclusive: 39.9%"}, {"smiles": "CCOC(=O)CNC(=O)Nc1ccccc1C(=O)OC", "inhibition": "inconclusive: -33.5%"}, {"smiles": "CCOc1ccccc1Oc1cn[nH]c1-c1ccc(O)cc1O", "inhibition": "inconclusive: -13.4%"}, {"smiles": "CC(C)(C)c1ccc(SCCc2cccnc2)cc1", "inhibition": "inconclusive: 84.8%"}, {"smiles": "CCOC(=O)C1=C(O)C(=O)N(c2ccc(S(N)(=O)=O)cc2)C1c1ccccc1", "note": "(stereo not drawn)", "inhibition": "inconclusive: 10.9%"}, {"smiles": "CN=C1S/C(=C/c2cn(CC(=O)OC)c3ccccc23)C(=O)N1C", "inhibition": "inconclusive: 40.3%"}, {"smiles": "C/C(=N\\O)c1ccc(Cl)cc1Cl", "inhibition": "inactive: -7.7%"}, {"smiles": "CC1(C)C2CCC1(CS(=O)(=O)Nc1cccc(S(N)(=O)=O)c1)C(=O)C2", "note": "(stereo not drawn)", "inhibition": "inconclusive: -28%"}, {"smiles": "COc1ccc(C2CCc3cc4c(cc3C2=NO)OCO4)cc1OC", "note": "(stereo not drawn)", "inhibition": "inactive: -8%"}, {"smiles": "O=C(NCCc1cccc(Cl)c1)c1cc2ccccc2oc1=O", "inhibition": "inconclusive: 15.2%"}, {"smiles": "COc1ccc(S(=O)(=O)N(C)CC(=O)N2CCCCCC2)cc1", "inhibition": "inconclusive: 1.2%"}, {"smiles": "COc1ccc(-n2c(SC(C)C(=O)Nc3ccc(NC(C)=O)cc3)nc3ccccc3c2=O)cc1OC", "note": "(stereo not drawn)", "inhibition": "inconclusive: -7.4%"}, {"smiles": "CCOc1ccc(CNCCCSc2ncccn2)cc1", "inhibition": "inconclusive: -1.7%"}, {"smiles": "COC(=O)c1cc(=O)n(-c2ccc(C(F)(F)F)cc2)[nH]1", "inhibition": "inconclusive: 55.7%"}, {"smiles": "COC(=O)c1ccc(S(=O)(=O)N2CCCN(Cc3ccccc3)CC2)n1C", "inhibition": "inconclusive: -7.2%"}, {"smiles": "O=C(CCc1ccc(O)cc1)c1c(O)cc(O)cc1O", "inhibition": "inactive: -5.1%"}, {"smiles": "CC(=O)Nc1ccc(NC(=O)Cn2c(-c3ccc(F)cc3)cnc2SCC(=O)Nc2c(C)cccc2C)cc1", "inhibition": "inconclusive: -14.6%"}, {"smiles": "O=C(Nc1ccn(CC(=O)N2CCN(c3ccccn3)CC2)c(=O)n1)OCc1ccccc1", "inhibition": "inactive: 7.3%"}, {"smiles": "CCCCOc1cccc2c(=O)n(CC(=O)Nc3ccc4c(c3)OCCO4)ccc12", "inhibition": "inactive: -0.2%"}, {"smiles": "CN(C)Cc1cc2ccccc2c2c1COC2", "inhibition": "inconclusive: -140%"}, {"smiles": "CCn1c(=O)c2cc(C(=O)NCCC(C)C)sc2c2ccccc21", "inhibition": "inconclusive: -2.1%"}, {"smiles": "Cc1onc(-c2c(Cl)cccc2Cl)c1C(=O)ONC(=O)c1cc(C(F)(F)F)cc(C(F)(F)F)c1", "inhibition": "inconclusive: 32.3%"}, {"smiles": "NNC(=O)c1cccc(COCC(F)(F)C(F)F)c1", "inhibition": "inconclusive: 0.1%"}, {"smiles": "Cc1cc(C)nc(NC(=O)c2cccs2)c1", "inhibition": "inconclusive: -11.9%"}, {"smiles": "O=C(O)CC(Cc1ccc(Br)cc1)C(=O)Nc1ccccc1", "note": "(stereo not drawn)", "inhibition": "inactive: -4.8%"}, {"smiles": "CC(C(=O)NCc1ccccc1Cl)n1cc([N+](=O)[O-])cn1", "note": "(stereo not drawn)", "inhibition": "active: 37.7%"}, {"smiles": "CN1CCN(Cc2nnc(-c3ccccc3)o2)CC1", "inhibition": "inconclusive: -1%"}, {"smiles": "O=C(Cc1ccccc1)N1O[C@H]2C=C[C@@H]1CC2", "inhibition": "inactive: -5.5%"}, {"smiles": "CN(NC(=O)c1ccccc1Cl)c1ncc(C(F)(F)F)cc1Cl", "inhibition": "inconclusive: -3.1%"}, {"smiles": "COC(=O)C1=C(C)NC2=C(C(=O)c3ccccc32)C1c1cccc(OC)c1", "note": "(stereo not drawn)", "inhibition": "inconclusive: -13%"}, {"smiles": "CCOC(=O)c1sc(/S(C)=N\\S(=O)(=O)c2cccc(Cl)c2)c2c1CCC=C2", "note": "(stereo not drawn)", "inhibition": "inconclusive: -116%"}, {"smiles": "COc1ccc(OC)c(C(O)c2ncc(-c3ccc(C(F)(F)F)cc3)[nH]2)c1", "note": "(stereo not drawn)", "inhibition": "inactive: 0.3%"}, {"smiles": "COc1ccccc1NC(=O)CN1C(=O)COc2ccc(C)cc21", "inhibition": "inconclusive: -7.2%"}, {"smiles": "Cc1cc(C)c(NC(=O)c2ccoc2C)c(C)c1", "inhibition": "inconclusive: 17.8%"}, {"smiles": "O=C(O)COc1ccccc1/C=N/NC(=O)CN1CCN(Cc2ccc(Cl)cc2)CC1", "inhibition": "inactive: -3.8%"}, {"smiles": "COc1ccc(C2/C(=C(/O)c3ccccc3)C(=O)C(=O)N2c2ccccn2)cc1", "note": "(stereo not drawn)", "inhibition": "inconclusive: 8.9%"}, {"smiles": "COc1ccc(CNC(=O)N2CCN(C(=O)c3ccccc3)CC2)cc1", "inhibition": "inconclusive: -12.9%"}, {"smiles": "O=C(Nc1ccc2c(c1)OCO2)c1ccc2nc[nH]c2c1", "inhibition": "inconclusive: -32.5%"}, {"smiles": "CCOC(=O)c1cc2ccc(OC(=O)c3ccco3)cc2oc1=O", "inhibition": "inactive: -0.1%"}, {"smiles": "Cc1nc2ccccc2c(=O)n1-c1cccc(C(F)(F)F)c1", "inhibition": "inconclusive: 9.3%"}, {"smiles": "O=C(CN(Cc1ccccc1Cl)C(=O)c1csnn1)NCc1ccc2c(c1)OCO2", "inhibition": "inactive: 2.6%"}, {"smiles": "O=C(CSc1nc2ccc(Nc3nc(N4CCCC4)nc(N4CCCC4)n3)cc2s1)NCc1ccco1", "inhibition": "inconclusive: -4.7%"}, {"smiles": "C#CCOc1c(Br)cc(/C=C2/C(=O)ON=C2C)cc1OC", "inhibition": "inconclusive: 3.8%"}, {"smiles": "O=C(OCC(=O)N1CCCc2ccccc21)c1ccc(F)c(S(=O)(=O)N2CCOCC2)c1", "inhibition": "inconclusive: -53.6%"}, {"smiles": "Cn1c(=O)c2[nH]c(NN=Cc3cccc(Br)c3)nc2n(C)c1=O", "inhibition": "inactive: -10.7%"}, {"smiles": "O=C(Nc1ccccc1)c1cccc2c(Br)cccc12", "inhibition": "inconclusive: 20.5%"}, {"smiles": "Cc1ccc2nc(-c3ccc(NC(=O)c4ccco4)cc3)[nH]c2c1", "inhibition": "inactive: -8.1%"}, {"smiles": "COc1ccc(CCNC(=O)C2CCCN2C(=O)Nc2ccccc2)cc1OC", "note": "(stereo not drawn)", "inhibition": "inconclusive: 32.6%"}, {"smiles": "COC(=O)CCC(=O)NNC(=O)C1CC1(c1ccccc1)c1ccccc1", "note": "(stereo not drawn)", "inhibition": "inconclusive: -4.7%"}, {"smiles": "CCCN1CCN(C(=O)Cn2nc(C)n3c(cc4c(OC)cccc43)c2=O)CC1", "inhibition": "inactive: -0.9%"}, {"smiles": "COc1ccc(C(=O)Nc2ccc(C(=O)NCC3CCCO3)cc2)c(OC)c1OC", "note": "(stereo not drawn)", "inhibition": "inconclusive: 35.1%"}, {"smiles": "COC(=O)C1=C(Nc2cc(Cl)cc(Cl)c2)CSC1", "inhibition": "inconclusive: -16.6%"}, {"smiles": "CC(=O)Nc1ccc(NS(=O)(=O)c2ccc(C)cc2)cc1[N+](=O)[O-]", "inhibition": "inconclusive: -37.8%"}]}]}
